Reference: the supplement of paper PMC7666118
The other results are listed elsewhere or left out.

Protein sequences, listed by entry. Tags and fused reporters are not part of them. Lines headed by an entry give the natural chain unless they say otherwise; changes in a name come on top.
UniProt Q00839, whole entry: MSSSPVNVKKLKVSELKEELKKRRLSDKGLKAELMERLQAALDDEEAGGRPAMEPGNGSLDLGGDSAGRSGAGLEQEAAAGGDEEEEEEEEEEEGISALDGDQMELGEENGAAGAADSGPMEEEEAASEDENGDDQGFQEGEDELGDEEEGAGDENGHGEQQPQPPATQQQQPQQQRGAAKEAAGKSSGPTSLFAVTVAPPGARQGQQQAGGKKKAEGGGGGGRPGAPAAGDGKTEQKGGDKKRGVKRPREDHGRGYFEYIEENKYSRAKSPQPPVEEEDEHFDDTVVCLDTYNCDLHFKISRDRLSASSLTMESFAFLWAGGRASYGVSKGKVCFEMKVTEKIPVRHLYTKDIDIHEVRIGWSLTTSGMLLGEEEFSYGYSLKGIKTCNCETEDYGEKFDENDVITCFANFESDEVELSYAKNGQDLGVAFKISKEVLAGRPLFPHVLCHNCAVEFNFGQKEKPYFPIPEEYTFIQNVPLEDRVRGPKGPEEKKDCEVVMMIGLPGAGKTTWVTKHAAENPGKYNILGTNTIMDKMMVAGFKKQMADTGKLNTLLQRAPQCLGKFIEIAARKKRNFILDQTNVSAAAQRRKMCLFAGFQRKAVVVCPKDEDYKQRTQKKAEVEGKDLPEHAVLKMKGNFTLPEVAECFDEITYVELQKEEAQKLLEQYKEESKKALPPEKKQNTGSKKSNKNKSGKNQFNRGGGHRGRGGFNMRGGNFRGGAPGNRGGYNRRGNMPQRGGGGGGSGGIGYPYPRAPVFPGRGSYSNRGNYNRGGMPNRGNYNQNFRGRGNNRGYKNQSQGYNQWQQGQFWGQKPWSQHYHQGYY
UniProt P05556, whole entry: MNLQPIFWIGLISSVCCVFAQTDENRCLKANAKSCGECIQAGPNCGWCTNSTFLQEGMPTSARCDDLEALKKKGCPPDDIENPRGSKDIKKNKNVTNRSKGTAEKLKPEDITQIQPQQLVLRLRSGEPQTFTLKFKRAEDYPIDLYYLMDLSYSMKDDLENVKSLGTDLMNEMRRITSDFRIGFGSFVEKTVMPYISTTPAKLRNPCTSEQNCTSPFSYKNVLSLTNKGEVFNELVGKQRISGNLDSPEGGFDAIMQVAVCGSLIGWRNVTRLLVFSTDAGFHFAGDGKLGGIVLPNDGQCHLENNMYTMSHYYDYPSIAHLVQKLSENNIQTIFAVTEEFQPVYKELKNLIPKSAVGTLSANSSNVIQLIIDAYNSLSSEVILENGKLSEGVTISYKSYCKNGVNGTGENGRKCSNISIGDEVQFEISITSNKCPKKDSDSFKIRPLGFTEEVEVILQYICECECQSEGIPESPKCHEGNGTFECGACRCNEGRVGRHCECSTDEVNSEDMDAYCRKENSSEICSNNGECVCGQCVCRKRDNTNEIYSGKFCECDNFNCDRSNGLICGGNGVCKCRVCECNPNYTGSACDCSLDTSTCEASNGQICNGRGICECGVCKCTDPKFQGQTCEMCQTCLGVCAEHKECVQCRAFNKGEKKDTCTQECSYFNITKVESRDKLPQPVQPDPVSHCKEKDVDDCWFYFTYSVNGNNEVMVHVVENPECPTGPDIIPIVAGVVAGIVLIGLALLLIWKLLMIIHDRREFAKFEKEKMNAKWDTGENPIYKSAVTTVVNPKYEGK
UniProt P22626: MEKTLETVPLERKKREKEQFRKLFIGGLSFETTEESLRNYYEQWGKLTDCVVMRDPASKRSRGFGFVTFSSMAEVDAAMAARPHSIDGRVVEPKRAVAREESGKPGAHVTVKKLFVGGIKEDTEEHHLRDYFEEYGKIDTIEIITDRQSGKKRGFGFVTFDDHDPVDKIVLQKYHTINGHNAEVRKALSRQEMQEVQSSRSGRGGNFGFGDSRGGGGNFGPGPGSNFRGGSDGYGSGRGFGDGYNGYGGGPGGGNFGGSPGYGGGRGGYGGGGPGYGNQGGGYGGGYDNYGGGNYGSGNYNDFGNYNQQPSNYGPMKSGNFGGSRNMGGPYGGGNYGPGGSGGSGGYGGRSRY
UniProt P38935: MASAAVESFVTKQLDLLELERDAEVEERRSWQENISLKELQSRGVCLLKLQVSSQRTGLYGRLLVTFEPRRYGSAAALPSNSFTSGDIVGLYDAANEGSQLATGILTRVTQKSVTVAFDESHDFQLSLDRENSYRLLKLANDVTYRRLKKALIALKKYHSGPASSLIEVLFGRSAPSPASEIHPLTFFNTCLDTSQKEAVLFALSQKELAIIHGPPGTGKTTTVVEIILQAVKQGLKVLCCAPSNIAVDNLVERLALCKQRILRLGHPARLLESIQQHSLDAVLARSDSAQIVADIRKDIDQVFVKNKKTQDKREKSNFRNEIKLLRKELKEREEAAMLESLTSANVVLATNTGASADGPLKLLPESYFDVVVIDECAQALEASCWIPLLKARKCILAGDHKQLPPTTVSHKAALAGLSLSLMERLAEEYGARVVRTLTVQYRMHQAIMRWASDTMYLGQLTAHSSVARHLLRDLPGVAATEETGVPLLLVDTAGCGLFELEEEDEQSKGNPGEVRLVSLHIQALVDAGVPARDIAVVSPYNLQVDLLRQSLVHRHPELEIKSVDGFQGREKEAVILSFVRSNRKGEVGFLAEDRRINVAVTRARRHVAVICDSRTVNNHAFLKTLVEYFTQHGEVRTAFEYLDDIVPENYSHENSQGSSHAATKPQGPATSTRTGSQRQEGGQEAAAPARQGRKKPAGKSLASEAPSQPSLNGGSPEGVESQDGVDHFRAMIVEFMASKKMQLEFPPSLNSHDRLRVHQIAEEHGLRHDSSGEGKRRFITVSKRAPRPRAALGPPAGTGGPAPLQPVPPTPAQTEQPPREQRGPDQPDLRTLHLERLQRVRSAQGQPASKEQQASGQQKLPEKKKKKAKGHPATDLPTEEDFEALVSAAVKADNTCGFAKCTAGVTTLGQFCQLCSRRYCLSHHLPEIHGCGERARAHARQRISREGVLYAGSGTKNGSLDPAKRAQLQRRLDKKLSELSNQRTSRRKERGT
UniProt Q9NX62: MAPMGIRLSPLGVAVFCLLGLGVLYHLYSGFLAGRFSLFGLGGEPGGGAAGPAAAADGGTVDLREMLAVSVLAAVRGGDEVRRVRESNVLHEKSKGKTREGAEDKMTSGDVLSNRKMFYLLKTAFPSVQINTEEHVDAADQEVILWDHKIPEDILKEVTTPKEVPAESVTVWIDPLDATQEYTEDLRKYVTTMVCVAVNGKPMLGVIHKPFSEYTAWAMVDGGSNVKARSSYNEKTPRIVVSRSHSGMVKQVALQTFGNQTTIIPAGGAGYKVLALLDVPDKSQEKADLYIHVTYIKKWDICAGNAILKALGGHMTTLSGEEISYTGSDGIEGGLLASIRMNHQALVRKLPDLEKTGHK
UniProt Q86U28: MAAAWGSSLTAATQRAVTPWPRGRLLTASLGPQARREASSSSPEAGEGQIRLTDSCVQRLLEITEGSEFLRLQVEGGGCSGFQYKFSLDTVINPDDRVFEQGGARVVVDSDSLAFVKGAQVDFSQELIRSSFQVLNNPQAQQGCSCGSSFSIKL
UniProt Q53T59: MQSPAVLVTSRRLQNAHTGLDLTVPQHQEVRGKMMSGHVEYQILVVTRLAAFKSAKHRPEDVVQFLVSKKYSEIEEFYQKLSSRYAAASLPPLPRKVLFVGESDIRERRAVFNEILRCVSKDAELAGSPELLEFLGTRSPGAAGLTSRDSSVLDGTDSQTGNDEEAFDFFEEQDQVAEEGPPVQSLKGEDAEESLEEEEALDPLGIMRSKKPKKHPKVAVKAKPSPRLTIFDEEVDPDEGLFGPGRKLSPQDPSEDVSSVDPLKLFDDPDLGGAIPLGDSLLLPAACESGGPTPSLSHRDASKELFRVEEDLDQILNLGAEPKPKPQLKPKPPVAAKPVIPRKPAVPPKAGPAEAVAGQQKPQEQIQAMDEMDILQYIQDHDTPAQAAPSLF
UniProt P53990, whole entry: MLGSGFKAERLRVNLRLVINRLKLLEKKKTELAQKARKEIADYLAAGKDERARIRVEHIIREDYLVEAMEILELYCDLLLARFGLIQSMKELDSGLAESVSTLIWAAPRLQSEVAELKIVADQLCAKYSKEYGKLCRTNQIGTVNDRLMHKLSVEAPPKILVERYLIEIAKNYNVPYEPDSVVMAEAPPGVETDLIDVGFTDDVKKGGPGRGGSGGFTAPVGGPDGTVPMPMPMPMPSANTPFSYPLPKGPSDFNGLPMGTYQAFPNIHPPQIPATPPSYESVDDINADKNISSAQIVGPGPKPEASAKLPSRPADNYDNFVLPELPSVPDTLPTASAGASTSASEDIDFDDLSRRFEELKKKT
UniProt Q9P2H3, whole entry: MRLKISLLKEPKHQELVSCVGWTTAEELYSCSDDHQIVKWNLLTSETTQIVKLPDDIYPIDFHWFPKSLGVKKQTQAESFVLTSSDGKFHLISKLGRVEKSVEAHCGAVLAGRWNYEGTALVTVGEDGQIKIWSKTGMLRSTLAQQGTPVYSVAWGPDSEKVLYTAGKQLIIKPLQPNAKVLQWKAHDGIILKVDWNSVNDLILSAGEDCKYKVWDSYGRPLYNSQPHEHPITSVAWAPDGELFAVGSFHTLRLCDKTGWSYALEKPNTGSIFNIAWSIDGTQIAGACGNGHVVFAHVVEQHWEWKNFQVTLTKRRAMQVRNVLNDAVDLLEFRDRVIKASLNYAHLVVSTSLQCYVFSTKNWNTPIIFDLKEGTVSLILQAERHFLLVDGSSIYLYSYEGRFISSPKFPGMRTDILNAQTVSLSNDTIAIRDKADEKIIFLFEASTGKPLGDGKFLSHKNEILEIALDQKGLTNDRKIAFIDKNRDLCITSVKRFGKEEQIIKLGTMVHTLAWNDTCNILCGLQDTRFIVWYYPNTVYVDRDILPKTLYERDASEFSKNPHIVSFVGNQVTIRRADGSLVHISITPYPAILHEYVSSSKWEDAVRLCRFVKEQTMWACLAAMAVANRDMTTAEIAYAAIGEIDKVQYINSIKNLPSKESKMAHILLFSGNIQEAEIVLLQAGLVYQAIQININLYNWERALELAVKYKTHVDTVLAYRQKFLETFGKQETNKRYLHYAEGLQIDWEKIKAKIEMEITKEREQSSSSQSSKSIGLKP
UniProt P09429: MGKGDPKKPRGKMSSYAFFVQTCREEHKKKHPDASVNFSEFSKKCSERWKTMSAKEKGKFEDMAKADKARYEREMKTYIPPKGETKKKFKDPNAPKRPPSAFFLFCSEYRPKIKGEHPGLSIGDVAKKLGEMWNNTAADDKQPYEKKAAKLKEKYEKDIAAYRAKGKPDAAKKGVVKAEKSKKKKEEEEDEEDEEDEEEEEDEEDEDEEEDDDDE
UniProt Q58WW2: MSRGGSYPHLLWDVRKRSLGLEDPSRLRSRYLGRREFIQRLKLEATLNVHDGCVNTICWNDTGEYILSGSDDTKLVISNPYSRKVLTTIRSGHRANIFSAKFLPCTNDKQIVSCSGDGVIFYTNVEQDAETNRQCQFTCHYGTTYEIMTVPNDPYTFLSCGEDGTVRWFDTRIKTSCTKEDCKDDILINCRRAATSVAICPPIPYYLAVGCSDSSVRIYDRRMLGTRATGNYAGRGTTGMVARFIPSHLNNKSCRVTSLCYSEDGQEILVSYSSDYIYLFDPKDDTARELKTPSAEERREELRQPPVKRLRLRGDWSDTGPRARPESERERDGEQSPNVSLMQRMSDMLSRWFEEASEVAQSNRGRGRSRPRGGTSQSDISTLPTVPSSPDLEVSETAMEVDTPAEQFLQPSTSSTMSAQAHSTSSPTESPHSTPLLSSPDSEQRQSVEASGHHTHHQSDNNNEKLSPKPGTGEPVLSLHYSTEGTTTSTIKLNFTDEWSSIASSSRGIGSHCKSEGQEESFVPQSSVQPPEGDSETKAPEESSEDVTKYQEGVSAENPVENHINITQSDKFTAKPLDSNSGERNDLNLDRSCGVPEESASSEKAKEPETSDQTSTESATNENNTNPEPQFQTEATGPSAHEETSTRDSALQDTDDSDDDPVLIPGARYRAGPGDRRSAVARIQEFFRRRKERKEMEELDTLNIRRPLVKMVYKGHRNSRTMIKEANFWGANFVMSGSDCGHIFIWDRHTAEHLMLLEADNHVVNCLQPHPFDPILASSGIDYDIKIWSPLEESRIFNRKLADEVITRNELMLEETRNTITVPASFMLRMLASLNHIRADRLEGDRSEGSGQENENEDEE
UniProt Q86YM7: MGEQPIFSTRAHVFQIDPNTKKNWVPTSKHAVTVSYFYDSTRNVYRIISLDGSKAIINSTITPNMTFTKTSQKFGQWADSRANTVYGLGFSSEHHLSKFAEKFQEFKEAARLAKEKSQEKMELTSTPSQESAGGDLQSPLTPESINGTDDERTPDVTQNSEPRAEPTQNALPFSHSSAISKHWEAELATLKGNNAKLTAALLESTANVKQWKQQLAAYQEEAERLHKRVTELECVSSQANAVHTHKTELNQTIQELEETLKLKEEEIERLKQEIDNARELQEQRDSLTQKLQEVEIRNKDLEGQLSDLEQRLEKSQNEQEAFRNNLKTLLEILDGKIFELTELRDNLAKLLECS

Each target was assayed with COc1ccc(Cn2ccc3ccc(C(=O)NO)cc32)cc1 (assay: dose-dependent thermal stabilisation call (2D-TPP, DLPTP, 10% FDR) (binary (1 = stabilised)); higher = stabilised by the compound). Conditions: system: HL-60 intact cells; concentration range 0.04-10 µM.

Row | Target | dose-dependent thermal stabilisation call
1 | IFT140 (UniProt Q96RY7) | inactive: 0
2 | HUWE1 (UniProt Q7Z6Z7) | inactive: 0
3 | HNRNPU (UniProt Q00839) | inactive: 0
4 | HP1BP3 (UniProt Q5SSJ5) | inactive: 0
5 | IFT122 (UniProt Q9HBG6) | inactive: 0
6 | ITGB1 (UniProt P05556) | inactive: 0
7 | INPP1 (UniProt P49441) | inactive: 0
8 | HNRNPA2B1 (UniProt P22626) | inactive: 0
9 | IGHMBP2 (UniProt P38935) | inactive: 0
10 | IMPAD1 (UniProt Q9NX62) | inactive: 0
11 | ISCA2 (UniProt Q86U28) | inactive: 0
12 | HNRNPL (UniProt P14866) | inactive: 0
13 | HS1BP3 (UniProt Q53T59) | inactive: 0
14 | IDE (UniProt P14735) | inactive: 0
15 | KIAA0174 (UniProt P53990) | inactive: 0
16 | IREB2 (UniProt P48200) | inactive: 0
17 | IFT80 (UniProt Q9P2H3) | inactive: 0
18 | HMGB1 (UniProt P09429) | inactive: 0
19 | IDH2 (UniProt P48735) | inactive: 0
20 | KIAA0427 (UniProt O43310) | inactive: 0
21 | ISG20L2 (UniProt Q9H9L3) | inactive: 0
22 | IQWD1 (UniProt Q58WW2) | inactive: 0
23 | JMJD1C (UniProt Q15652) | inactive: 0
24 | HNRNPH2 (UniProt P55795) | inactive: 0
25 | HOMER1 (UniProt Q86YM7) | inactive: 0
26 | ITFG2 (UniProt Q969R8) | inactive: 0

Some values from the entries so far:
dose-dependent thermal stabilisation call with HNRNPL (UniProt P14866) reads inactive: 0
dose-dependent thermal stabilisation call with KIAA0174 (UniProt P53990) reads inactive: 0
